Laboratory results taken from the supplement of paper PMC4604168 (melanoma cell lines).
This is one part of the list. Many values rest on one well or one pass, so single values are uncertain.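 Imaging used 1,536-well plates; nuclei positive for cleaved PARP by antibody were divided by total DNA-stained nuclei to yield the apoptosis fraction. Doses for screening kept most cells viable, and cell lines differ markedly in resting and induced cleaved-PARP levels.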

Columns and labels:
Experiment in all cases: cleaved PARP positive nuclei fraction relative to DMSO control; melanoma cells; higher = more apoptosis
Details in all cases: library dose: low library concentration; 72 h
[1] = tested on: WM115
[2] = tested on: WM1716
[3] = tested on: WM1745
[4] = tested on: WM3526
[5] = tested on: WM3619
[6] = tested on: WM451Lu

SMILES | cleaved PARP positive nuclei fraction [1] | cleaved PARP positive nuclei fraction [2] | cleaved PARP positive nuclei fraction [3] | cleaved PARP positive nuclei fraction [4] | cleaved PARP positive nuclei fraction [5] | cleaved PARP positive nuclei fraction [6]
Cc1ccc(Nc2nccc(N(C)c3ccc4c(C)n(C)nc4c3)n2)cc1S(N)(=O)=O [Pazopanib] + NCC(=O)Nc1ccc(-n2nc(C(F)(F)F)cc2-c2ccc3c(ccc4ccccc43)c2)cc1 [OSU03012] (first compound 0.4 µM, partner dose 1 µM) | 208% | 104% | 73.5% | 468% | 202% | 149%
CCCCCCCCCCCCCCCCCCOP(=O)([O-])OC1CC[N+](C)(C)CC1 [Perifosine] + CS(=O)(=O)c1ccc(C(=O)Nc2ccc(Cl)c(-c3ccccn3)c2)c(Cl)c1 [vismodegib] (first compound 0.4 µM, partner dose 1 µM) | 138% | 47.7% | 97.7% | 65.3% | 99.5% | 91.8%
Cc1ccc(Nc2nccc(N(C)c3ccc4c(C)n(C)nc4c3)n2)cc1S(N)(=O)=O [Pazopanib] + Cc1cc(Nc2cc(N3CCN(C)CC3)nc(/C=C/c3ccccc3)n2)n[nH]1 [ENMD2076] (first compound 0.4 µM, partner dose 0.04 µM) | 157% | 160% | 87.7% | 143% | 120% | 96.8%
O=C(Nc1cc(C(F)(F)F)cc(C(F)(F)F)c1)c1cc(Cl)ccc1O + CNC(=O)c1cc(Oc2ccc(NC(=O)Nc3ccc(Cl)c(C(F)(F)F)c3)cc2)ccn1 [sorafenib] (first compound 0.016 µM, partner dose 0.4 µM) | 72.2% | 111% | 82.6% | 30.5% | 96.8% | 43.7%
N#CC[C@H](C1CCCC1)n1cc(-c2ncnc3[nH]ccc23)cn1 [ruxolitinib] + Cn1c(=O)n(-c2ccc(C(C)(C)C#N)cc2)c2c3cc(-c4cnc5ccccc5c4)ccc3ncc21 [NVP-BEZ235] (first compound 1 µM, partner dose 0.004 µM) | 23.1% | 52.3% | 93.7% | 123% | 92.8% | 108%
N#CC[C@H](C1CCCC1)n1cc(-c2ncnc3[nH]ccc23)cn1 [ruxolitinib] + O=C(O)c1ccc2c(c1)nc(Nc1cccc(Cl)c1)c1ccncc12 [CX4945] (first compound 1 µM, partner dose 0.4 µM) | 55.3% | 67.7% | 92.4% | 39% | 118% | 59.7%
Cc1cc(Nc2cc(N3CCN(C)CC3)nc(Sc3ccc(NC(=O)C4CC4)cc3)n2)n[nH]1 [Tozasertib] + CN(C)S(=O)(=O)c1ccc2c(c1)/C(=C/c1cc3c([nH]1)CCCC3)C(=O)N2 [SU6656] (first compound 0.006 µM, partner dose 0.4 µM) | 119% | 54.7% | 114% | 153% | 89.6% | 118%
Cc1cn(-c2cc(NC(=O)c3ccc(C)c(Nc4nccc(-c5cccnc5)n4)c3)cc(C(F)(F)F)c2)cn1 [nilotinib] + Cn1c(Nc2ccc(C(F)(F)F)cc2)nc2cc(Oc3ccnc(-c4ncc(C(F)(F)F)[nH]4)c3)ccc21 [CHIR265] (first compound 0.2 µM, partner dose 0.08 µM) | 444% | 68.6% | 138% | 66.2% | 114% | 88.2%
CC[C@]1(O)C[C@H]2CN(CCc3c([nH]c4ccccc34)[C@@](C(=O)OC)(c3cc4c(cc3OC)N(C=O)[C@H]3[C@@](O)(C(=O)OC)[C@H](OC(C)=O)[C@]5(CC)C=CCN6CC[C@]43[C@@H]65)C2)C1 [vincristine] + NC(=O)c1ccc(N(C(N)=O)c2c(F)cccc2F)nc1-c1ccc(F)cc1F [VX702] (first compound 0.0001 µM, partner dose 0.4 µM) | 587% | 56.8% | 892% | 38% | 382% | 60%
CCCCCCCCCCCCCCCCCCOP(=O)([O-])OC1CC[N+](C)(C)CC1 [Perifosine] + Cn1sc(=O)n(Cc2ccccc2)c1=O [TDZD-8] (first compound 0.4 µM, partner dose 0.4 µM) | 124% | 39% | 108% | 85.8% | 92.2% | 63.7%
O=C(Nc1cc(C(F)(F)F)cc(C(F)(F)F)c1)c1cc(Cl)ccc1O + COc1cc2c(Oc3ccc4[nH]c(C)cc4c3F)ncnc2cc1OCCCN1CCCC1 [cediranib] (first compound 0.016 µM, partner dose 0.4 µM) | 106% | 167% | 99.7% | 142% | 109% | 145%
CCCCCCCCCCCCCCCCCCOP(=O)([O-])OC1CC[N+](C)(C)CC1 [Perifosine] + O=C(CCCCCCC(=O)Nc1ccccc1)NO [vorinostat] (first compound 0.4 µM, partner dose 0.08 µM) | 47.7% | 115% | 113% | 119% | 103% | 307%
Cc1cn(-c2cc(NC(=O)c3ccc(C)c(Nc4nccc(-c5cccnc5)n4)c3)cc(C(F)(F)F)c2)cn1 [nilotinib] + C[C@@H]1CCN(C(=O)CC#N)C[C@@H]1N(C)c1ncnc2[nH]ccc12 [CP690550] (first compound 0.2 µM, partner dose 1 µM) | 60.2% | 154% | 94.5% | 67.1% | 91.6% | 85.5%
CC[C@]1(O)C[C@H]2CN(CCc3c([nH]c4ccccc34)[C@@](C(=O)OC)(c3cc4c(cc3OC)N(C=O)[C@H]3[C@@](O)(C(=O)OC)[C@H](OC(C)=O)[C@]5(CC)C=CCN6CC[C@]43[C@@H]65)C2)C1 [vincristine] + CCCCCCCCCCCC1=C(O)C(=O)C=C(O)C1=O [Embelin] (first compound 0.0001 µM, partner dose 1.2 µM) | 762% | 290% | 134% | 108% | 177% | 138%
Cc1cc(Nc2cc(N3CCN(C)CC3)nc(Sc3ccc(NC(=O)C4CC4)cc3)n2)n[nH]1 [Tozasertib] + CN(NC(=O)CC(=O)NN(C)C(=S)c1ccccc1)C(=S)c1ccccc1 [STA4783] (first compound 0.006 µM, partner dose 0.006 µM) | 240% | 178% | 163% | 57.4% | 137% | 112%
Cc1cn(-c2cc(NC(=O)c3ccc(C)c(Nc4nccc(-c5cccnc5)n4)c3)cc(C(F)(F)F)c2)cn1 [nilotinib] + O=C(O)c1ccc(-c2c[nH]c3ncc(-c4ccccc4)cc23)cc1C1CCCC1 [GSK650394] (first compound 0.2 µM, partner dose 0.16 µM) | 106% | 136% | 101% | 52.7% | 83.2% | 90.1%
Cc1cc(Nc2cc(N3CCN(C)CC3)nc(Sc3ccc(NC(=O)C4CC4)cc3)n2)n[nH]1 [Tozasertib] + O=c1cc(-c2cccc3c2Sc2ccccc2S3)oc(N2CCOCC2)c1 [KU55933] (first compound 0.006 µM, partner dose 1 µM) | 227% | 99.1% | 99.4% | 93.1% | 77.2% | 155%
O=C(/C=C/c1cccnc1)NCCCCC1CCN(C(=O)c2ccccc2)CC1 + CCCCCCCCCCCC1=C(O)C(=O)C=C(O)C1=O [Embelin] (first compound 0.01 µM, partner dose 1.2 µM) | 275% | 109% | 76% | 67.4% | 105% | 205%
O=C(Nc1cc(C(F)(F)F)cc(C(F)(F)F)c1)c1cc(Cl)ccc1O + c1cc(-c2cnn3cc(-c4ccc(OCCN5CCCCC5)cc4)cnc23)ccn1 [Dorsomorphin] (first compound 0.016 µM, partner dose 0.4 µM) | 160% | 41.1% | 113% | 57.3% | 84.1% | 62.4%
CCCCCCCCCCCCCCCCCCOP(=O)([O-])OC1CC[N+](C)(C)CC1 [Perifosine] + NC(=O)c1ccc(N(C(N)=O)c2c(F)cccc2F)nc1-c1ccc(F)cc1F [VX702] (first compound 0.4 µM, partner dose 0.4 µM) | 151% | 142% | 120% | 184% | 101% | 28.7%
N#CC[C@H](C1CCCC1)n1cc(-c2ncnc3[nH]ccc23)cn1 [ruxolitinib] + COc1ccc(C2=N[C@@H](c3ccc(Cl)cc3)[C@@H](c3ccc(Cl)cc3)N2C(=O)N2CCNC(=O)C2)c(OC(C)C)c1 [Nutlin-3] (first compound 1 µM, partner dose 0.1 µM) | 152% | 58.3% | 85.3% | 54.9% | 67.8% | 49.5%
Cc1cc(Nc2cc(N3CCN(C)CC3)nc(Sc3ccc(NC(=O)C4CC4)cc3)n2)n[nH]1 [Tozasertib] + C=CCn1c(=O)c2cnc(Nc3ccc(N4CCN(C)CC4)cc3)nc2n1-c1cccc(C(C)(C)O)n1 [MK1775] (first compound 0.006 µM, partner dose 0.02 µM) | 155% | 67.7% | 188% | 50.6% | 74.8% | 146%
O=C(Nc1cc(C(F)(F)F)cc(C(F)(F)F)c1)c1cc(Cl)ccc1O + CC1(C)CCC(c2ccc(Cl)cc2)=C(CN2CCN(c3ccc(C(=O)NS(=O)(=O)c4ccc(N[C@H](CCN5CCOCC5)CSc5ccccc5)c(S(=O)(=O)C(F)(F)F)c4)cc3)CC2)C1 [ABT263] (first compound 0.016 µM, partner dose 0.4 µM) | 243% | 105% | 246% | 94.9% | 128% | 105%

A portion of the results above:
SMILES | cleaved PARP positive nuclei fraction [1] | cleaved PARP positive nuclei fraction [2] | cleaved PARP positive nuclei fraction [3] | cleaved PARP positive nuclei fraction [4] | cleaved PARP positive nuclei fraction [5] | cleaved PARP positive nuclei fraction [6]
Cc1cn(-c2cc(NC(=O)c3ccc(C)c(Nc4nccc(-c5cccnc5)n4)c3)cc(C(F)(F)F)c2)cn1 [nilotinib] + Cn1c(Nc2ccc(C(F)(F)F)cc2)nc2cc(Oc3ccnc(-c4ncc(C(F)(F)F)[nH]4)c3)ccc21 [CHIR265] (first compound 0.2 µM, partner dose 0.08 µM) | 444% | 68.6% | 138% | 66.2% | 114% | 88.2%
CC[C@]1(O)C[C@H]2CN(CCc3c([nH]c4ccccc34)[C@@](C(=O)OC)(c3cc4c(cc3OC)N(C=O)[C@H]3[C@@](O)(C(=O)OC)[C@H](OC(C)=O)[C@]5(CC)C=CCN6CC[C@]43[C@@H]65)C2)C1 [vincristine] + NC(=O)c1ccc(N(C(N)=O)c2c(F)cccc2F)nc1-c1ccc(F)cc1F [VX702] (first compound 0.0001 µM, partner dose 0.4 µM) | 587% | 56.8% | 892% | 38% | 382% | 60%
